Assay results taken from publication PMC12040169 (PLOS Biology, 2025).
Some of the results follow.

tested on: T1, CTL2-GFP (C. trachomatis L2/434/Bu, GFP-expressing); design: species or system HeLa; Intracellular C. trachomatis growth in HeLa cells, bulk GFP fluorescence relative to DMSO; conditions: bulk GFP, single well; 28.5 h, 10 µM; inhibitor
T1 construct: L2/434/Bu, GFP-expressing

Row | SMILES | % of control remaining [%]
1 | C#CC1(OC(=O)CC)CCN(CCCC(=O)c2ccc(F)cc2)CC1 [CBK025277C] | 99.6705
2 | CC1(C)CC(=O)C2=C(C1)Nc1ccccc1N(CC(=O)O)C2c1cccs1 (stereo not drawn) [CBK286597] | 110.087
3 | Cc1cc(S(=O)(=O)Nc2cc(C3CC3)nn2C)c(C)cc1Cl [CBK043994] | 99.2373
4 | Nc1nc(CSCCO)nc(Nc2ccc(F)cc2)n1 [CBK265542] | 130.791
5 | Clc1ccc(CN2CCCN(c3cc(OC4CCCCC4)ncn3)CC2)cc1Cl [CBK083338T] | 111.699
6 | CCCc1[nH]nc(O)c1Cc1ccccc1CS(=O)(=O)c1ccccc1 [CBK074347] | 126.754
7 | NCc1ccc(C(=O)N(CCc2cc(C(F)(F)F)cc(C(F)(F)F)c2)c2ccc(Cl)c(Cl)c2)cc1 [CBK008632T] | 62.4071
8 | CCN(CC)C(=O)[C@@H]1CCCN(C2CCN(C(=O)c3c4ccccc4cc4ccccc34)CC2)C1 [CBK066966C] | 115.422
9 | CN1C(=O)CC(NCc2ccc(S(N)(=O)=O)cc2)C1=O (stereo not drawn) [CBK262352] | 113.443
10 | C=CCN1C(=O)CC2(C1=O)C(=O)N(CCCN1C(=O)c3ccccc3C1=O)c1ccc(Cl)cc12 (stereo not drawn) [CBK075443] | 137.12
11 | CCc1c(C)nc2c(C)cccc2c1SCC(=O)O [CBK263554] | 119.876
12 | COc1ccc(C)cc1C1(CNC(=O)C2CC2C(=O)O)CCOCC1 (stereo not drawn) [CBK304492] | 136.381
13 | CN(C)C(=O)CN1C(=O)CC2(C1=O)C(=O)N(CC(=O)O)c1ccc(F)cc12 (stereo not drawn) [CBK076119] | 95.0747
14 | O=C1CNC(=O)C2(C/C=C/C[C@H]3COCC[C@H]3N1)CCN(C(=O)Cc1cccnc1)CC2 [CBK292068] | 129.405
15 | O=C(O)CCC(=O)Nc1ccc(-c2nc3cc(C(=O)c4ccccc4)ccc3[nH]2)cc1 [CBK267401] | 102.954
16 | CN1CCC(N(C)C(=O)NCc2ccc(C#N)cc2)C1 (stereo not drawn) [CBK156005] | 115.916
17 | COc1cccc(C(NC(=O)C2COc3ccc(OC)cc3C2)c2ccccc2)c1 (stereo not drawn) [CBK285713] | 109.327
18 | Cc1cc(OCc2nnc(SCC(=O)N3CCN(c4ccccc4)CC3)n2C)ccc1Cl [CBK268611] | 139.627
19 | O=C(O)[C@@H]1CC(O)CN1C(=O)c1ccc2noc(-c3ccccc3)c2c1 (stereo partly drawn) [CBK286736] | 111.681
20 | CC(=O)Oc1ccc2c(=O)cc(N(C)C)oc2c1C [CBK016581] | 168.963
21 | Nc1ccc(-c2cccc(C(F)(F)F)c2)c2ccccc12 [CBK084324] | 93.7339

A run of entries from further up, as a working copy:
Row | SMILES | % of control remaining [%]
19 | O=C(O)[C@@H]1CC(O)CN1C(=O)c1ccc2noc(-c3ccccc3)c2c1 (stereo partly drawn) [CBK286736] | 111.681
20 | CC(=O)Oc1ccc2c(=O)cc(N(C)C)oc2c1C [CBK016581] | 168.963
